# For part of these data: Where cells or extracts were used, other partners may take part. Where a protein sequence is shown, tags need not be part of it. For part of these data: Construct, isoform or probe ends are uncertain for at least one entry. For part of these data: Negatives hold for the conditions tested.
# What was measured:
# [1] = target: T1, NF-X1 (plaque filter-bound fusion) (Homo sapiens) (UniProt Q12986); assay: binding assay; settings: protein in a lysate after overexpression, protein details: beta-galactosidase fusion, lambda gt11 plaque lift
# T1 sequence (limits assumed): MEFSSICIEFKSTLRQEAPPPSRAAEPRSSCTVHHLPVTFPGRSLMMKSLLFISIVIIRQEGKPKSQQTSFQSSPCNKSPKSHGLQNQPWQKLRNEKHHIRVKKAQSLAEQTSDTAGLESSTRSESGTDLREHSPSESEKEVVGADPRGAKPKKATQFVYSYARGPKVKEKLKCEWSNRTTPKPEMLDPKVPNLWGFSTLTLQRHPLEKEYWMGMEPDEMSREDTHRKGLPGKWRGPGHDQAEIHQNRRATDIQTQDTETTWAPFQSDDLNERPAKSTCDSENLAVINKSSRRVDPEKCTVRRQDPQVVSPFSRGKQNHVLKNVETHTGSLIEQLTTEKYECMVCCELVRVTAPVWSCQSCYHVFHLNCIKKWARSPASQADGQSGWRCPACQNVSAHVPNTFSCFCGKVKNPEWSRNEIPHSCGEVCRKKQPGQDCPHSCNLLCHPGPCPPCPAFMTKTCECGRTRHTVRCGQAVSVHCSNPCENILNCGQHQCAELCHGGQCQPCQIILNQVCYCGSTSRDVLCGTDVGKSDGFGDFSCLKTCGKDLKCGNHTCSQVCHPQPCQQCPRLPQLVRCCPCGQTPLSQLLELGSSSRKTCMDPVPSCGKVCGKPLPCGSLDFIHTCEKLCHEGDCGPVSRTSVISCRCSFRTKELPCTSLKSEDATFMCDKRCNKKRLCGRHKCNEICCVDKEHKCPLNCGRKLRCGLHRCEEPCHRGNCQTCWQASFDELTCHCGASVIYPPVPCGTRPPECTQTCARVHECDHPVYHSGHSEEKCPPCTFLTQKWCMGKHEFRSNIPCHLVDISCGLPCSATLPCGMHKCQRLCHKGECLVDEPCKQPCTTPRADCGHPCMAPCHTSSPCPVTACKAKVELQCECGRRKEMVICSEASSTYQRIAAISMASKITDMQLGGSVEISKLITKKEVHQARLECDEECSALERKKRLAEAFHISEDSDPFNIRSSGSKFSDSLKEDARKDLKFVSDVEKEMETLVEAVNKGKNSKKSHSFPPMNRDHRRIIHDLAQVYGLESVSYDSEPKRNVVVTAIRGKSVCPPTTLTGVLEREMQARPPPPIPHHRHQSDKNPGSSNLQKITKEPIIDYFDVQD
# NF-X1 (Homo sapiens) [2] = target: T2, NF-X1 (Homo sapiens) (UniProt Q12986); assay: competition with a labelled probe; settings: EMSA, 100-fold excess cold competitor has no effect; purified recombinant protein
# T2 sequence (limits assumed): T1 sequence (limits assumed)
# NF-X1 (Homo sapiens) [3] = target: T2, NF-X1 (Homo sapiens); assay: EMSA; settings: 13 mM Tris pH 7.9, 60 mM KCl, 12.5 mM NaCl, 12% glycerol, poly dIdC, room temperature; purified recombinant protein; label: 32P
# [4] = target: T3, NF-X1 truncations D and E (cysteine-rich region) (Homo sapiens) (UniProt Q12986); assay: binding assay; settings: plaque filter binding; 30 uM ZnSO4, 40 mM KCl, 4 C; other truncations lacking parts of the region do not bind; protein in a lysate after overexpression; label: 32P
# T3 sequence: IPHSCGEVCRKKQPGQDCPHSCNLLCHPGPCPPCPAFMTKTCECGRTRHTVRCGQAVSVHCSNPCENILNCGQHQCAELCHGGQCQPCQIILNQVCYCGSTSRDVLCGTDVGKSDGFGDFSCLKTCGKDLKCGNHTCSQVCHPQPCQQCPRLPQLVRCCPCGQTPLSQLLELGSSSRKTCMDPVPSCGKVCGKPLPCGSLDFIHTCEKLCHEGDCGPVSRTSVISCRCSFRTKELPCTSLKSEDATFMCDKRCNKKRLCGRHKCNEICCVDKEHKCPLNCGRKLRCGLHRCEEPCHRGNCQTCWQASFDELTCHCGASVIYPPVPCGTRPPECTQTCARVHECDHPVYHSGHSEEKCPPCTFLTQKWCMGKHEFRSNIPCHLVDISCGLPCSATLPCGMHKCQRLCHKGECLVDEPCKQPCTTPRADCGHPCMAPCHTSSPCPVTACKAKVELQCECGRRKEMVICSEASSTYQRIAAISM
# [5] = plaque filter lift screening with multimerized probe, label: 32P, concatenated
sequence,measurement,setting,value
AAAATCTGCCCAGAGACAGATGAGGTCCTT (double strand) [HLA-DQB X box],binding result,[1]; [5],binds
AAATATTTTTCTGATTGGCCAAAGAGT (double strand) [HLA-DRA Y box],binding result,NF-X1 (Homo sapiens) [2],no binding
ACTTTCTGCCTAGTGAGCAATGACTCATAC (double strand) [HLA-DPB X box],binding result,[1]; [5],binds
ATTCGATCGGGGCGGGGCGAGC (double strand) [SP1 motif],binding result,NF-X1 (Homo sapiens) [2],no binding
CCCTTCCCCTAGCAACAGATG (double strand) [HLA-DRA X1 box],binding result,NF-X1 (Homo sapiens) [3],binds
same,binding result,[4],binds
GTGGGAAATTCCGTGGGAAATTCCG (double strand) [PRDII element of interferon-beta gene],binding result,NF-X1 (Homo sapiens) [2],no binding
TGTGTCCTGGACCCTTTGCAAGA (double strand) [HLA-DRA S box],binding result,NF-X1 (Homo sapiens) [2],no binding
same,binding result,[1]; plaque filter lift screening,no binding
